The text below walks through data of PMC9076876.

These are yes or no findings as the source states them, for the method shown. In cells and extracts the contact can be indirect. Some entries that bind do so weakly or less than the wild type. Tags and fused reporters may be left off the sequences shown.

The target of one assay is T1, V5 tagged PEX10 (human) (UniProt O60683).
T1 sequence: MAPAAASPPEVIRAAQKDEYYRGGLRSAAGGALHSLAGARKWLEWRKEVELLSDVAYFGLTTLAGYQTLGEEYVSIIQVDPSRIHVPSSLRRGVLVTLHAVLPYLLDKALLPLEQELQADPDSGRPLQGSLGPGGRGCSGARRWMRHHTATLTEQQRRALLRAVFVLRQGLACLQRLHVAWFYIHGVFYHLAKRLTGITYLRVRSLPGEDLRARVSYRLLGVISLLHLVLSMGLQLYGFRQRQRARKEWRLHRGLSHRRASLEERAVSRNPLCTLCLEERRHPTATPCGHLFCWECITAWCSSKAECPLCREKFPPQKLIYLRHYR
Briefly: co-IP; HEK293T cells co-transfected with V5-tagged PEX and FLAG-tagged candidate, collected 36 h after transfection; IP with anti-V5 antibody on protein G beads, 4 C for 3 h, washed with lysis buffer; blot with anti-FLAG.

Assay [1] addresses T2, PEX12 (co-immunoprecipitation construct) (human) (UniProt O00623).
T2 sequence: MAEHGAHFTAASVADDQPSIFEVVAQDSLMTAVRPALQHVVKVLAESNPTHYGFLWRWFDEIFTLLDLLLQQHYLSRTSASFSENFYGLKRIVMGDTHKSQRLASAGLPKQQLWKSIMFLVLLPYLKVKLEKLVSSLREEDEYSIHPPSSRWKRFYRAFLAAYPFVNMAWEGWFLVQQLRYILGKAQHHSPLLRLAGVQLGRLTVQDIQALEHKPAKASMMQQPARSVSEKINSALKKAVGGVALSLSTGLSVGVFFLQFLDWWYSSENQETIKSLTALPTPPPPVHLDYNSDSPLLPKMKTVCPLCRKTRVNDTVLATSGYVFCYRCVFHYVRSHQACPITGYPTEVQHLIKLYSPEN
Described as above.

B1: FLAG-tagged CYB5R1 (protein, UniProt Q9UHQ9 1-305)
chain: MGIQTSPVLLASLGVGLVTLLGLAVGSYLVRRSRRPQVTLLDPNEKYLLRLLDKTTVSHNTKRFRFALPTAHHTLGLPVGKHIYLSTRIDGSLVIRPYTPVTSDEDQGYVDLVIKVYLKGVHPKFPEGGKMSQYLDSLKVGDVVEFRGPSGLLTYTGKGHFNIQPNKKSPPEPRVAKKLGMIAGGTGITPMLQLIRAILKVPEDPTQCFLLFANQTEKDIILREDLEELQARYPNRFKLWFTLDHPPKDWAYSKGFVTADMIREHLPAPGDDVLVLLCGPPPMVQLACHPNLDKLGYSQKMRFTY
Consider B1, for which the binding entry (with V5 tagged PEX10 (human); in assay [1]) was “binds” throughout.
